# Measured values: the supplement of paper PMC6411743
# By UniProt entry, the sequences of proteins in these tests, tags left out. Where a name states a change or a piece, a line headed by the entry shows the natural chain unless it says otherwise.
# UniProt O95249: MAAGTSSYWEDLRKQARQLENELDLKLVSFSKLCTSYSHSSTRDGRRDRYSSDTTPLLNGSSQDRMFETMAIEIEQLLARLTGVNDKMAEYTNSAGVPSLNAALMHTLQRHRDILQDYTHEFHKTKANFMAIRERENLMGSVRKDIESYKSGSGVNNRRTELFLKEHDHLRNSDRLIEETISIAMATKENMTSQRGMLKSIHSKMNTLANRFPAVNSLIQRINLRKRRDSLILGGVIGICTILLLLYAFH
# UniProt O95819: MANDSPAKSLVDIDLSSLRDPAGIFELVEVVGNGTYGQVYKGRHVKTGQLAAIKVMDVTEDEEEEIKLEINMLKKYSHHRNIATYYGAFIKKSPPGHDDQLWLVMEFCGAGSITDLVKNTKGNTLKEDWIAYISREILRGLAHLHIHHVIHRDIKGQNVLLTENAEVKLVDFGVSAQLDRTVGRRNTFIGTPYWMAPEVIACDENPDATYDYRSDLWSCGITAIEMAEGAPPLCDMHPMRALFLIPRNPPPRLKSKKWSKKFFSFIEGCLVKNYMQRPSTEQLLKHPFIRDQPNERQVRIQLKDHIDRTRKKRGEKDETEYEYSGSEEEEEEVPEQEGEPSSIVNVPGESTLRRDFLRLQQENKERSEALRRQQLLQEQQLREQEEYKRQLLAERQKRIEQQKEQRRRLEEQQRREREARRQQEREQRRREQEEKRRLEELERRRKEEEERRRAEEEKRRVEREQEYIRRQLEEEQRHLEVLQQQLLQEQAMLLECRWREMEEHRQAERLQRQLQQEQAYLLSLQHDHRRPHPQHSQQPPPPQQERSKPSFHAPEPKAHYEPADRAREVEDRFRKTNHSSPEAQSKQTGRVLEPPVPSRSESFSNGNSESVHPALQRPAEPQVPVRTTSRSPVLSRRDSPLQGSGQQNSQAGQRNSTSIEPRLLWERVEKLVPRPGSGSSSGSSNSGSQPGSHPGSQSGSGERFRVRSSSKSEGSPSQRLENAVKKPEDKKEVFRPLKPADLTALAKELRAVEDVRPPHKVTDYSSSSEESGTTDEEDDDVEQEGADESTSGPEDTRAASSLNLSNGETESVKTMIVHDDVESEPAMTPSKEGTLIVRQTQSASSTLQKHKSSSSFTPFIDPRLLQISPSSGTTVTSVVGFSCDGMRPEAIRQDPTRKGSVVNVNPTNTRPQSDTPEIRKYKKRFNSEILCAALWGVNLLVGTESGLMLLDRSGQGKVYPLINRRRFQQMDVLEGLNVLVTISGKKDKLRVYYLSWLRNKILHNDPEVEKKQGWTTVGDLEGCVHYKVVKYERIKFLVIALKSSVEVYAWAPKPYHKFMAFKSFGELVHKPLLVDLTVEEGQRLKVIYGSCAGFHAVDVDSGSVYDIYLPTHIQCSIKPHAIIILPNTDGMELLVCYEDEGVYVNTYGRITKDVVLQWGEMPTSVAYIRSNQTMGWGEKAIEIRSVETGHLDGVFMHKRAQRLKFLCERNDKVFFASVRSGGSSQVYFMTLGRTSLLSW
# UniProt P52566: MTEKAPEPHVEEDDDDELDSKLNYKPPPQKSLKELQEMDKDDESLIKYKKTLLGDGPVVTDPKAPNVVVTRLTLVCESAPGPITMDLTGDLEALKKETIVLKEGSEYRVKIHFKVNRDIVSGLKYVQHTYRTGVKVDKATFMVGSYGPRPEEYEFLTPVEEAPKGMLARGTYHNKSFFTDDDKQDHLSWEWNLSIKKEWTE
# UniProt P54105: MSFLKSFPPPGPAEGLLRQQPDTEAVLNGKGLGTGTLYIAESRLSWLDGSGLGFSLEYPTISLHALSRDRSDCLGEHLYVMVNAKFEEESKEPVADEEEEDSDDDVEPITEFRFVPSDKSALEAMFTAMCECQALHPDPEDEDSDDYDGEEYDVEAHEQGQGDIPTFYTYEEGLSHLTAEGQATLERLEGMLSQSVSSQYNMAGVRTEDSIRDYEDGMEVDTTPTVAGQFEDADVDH
# UniProt Q96MG8: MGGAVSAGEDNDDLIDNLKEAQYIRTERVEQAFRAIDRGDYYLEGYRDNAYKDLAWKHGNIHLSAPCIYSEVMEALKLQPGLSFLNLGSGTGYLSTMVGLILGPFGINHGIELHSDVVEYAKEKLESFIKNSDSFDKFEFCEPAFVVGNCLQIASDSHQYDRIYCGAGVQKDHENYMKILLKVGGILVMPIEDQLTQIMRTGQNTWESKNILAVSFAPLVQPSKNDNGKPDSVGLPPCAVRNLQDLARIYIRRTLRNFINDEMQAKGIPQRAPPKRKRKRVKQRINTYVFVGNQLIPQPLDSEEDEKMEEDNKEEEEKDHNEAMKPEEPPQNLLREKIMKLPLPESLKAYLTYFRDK
# UniProt P61224: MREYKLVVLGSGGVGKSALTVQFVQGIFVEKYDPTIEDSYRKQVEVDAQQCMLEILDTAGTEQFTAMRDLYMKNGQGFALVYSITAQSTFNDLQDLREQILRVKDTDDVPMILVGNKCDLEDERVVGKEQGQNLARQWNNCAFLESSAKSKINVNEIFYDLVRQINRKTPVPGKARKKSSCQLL
# UniProt Q9H3J6: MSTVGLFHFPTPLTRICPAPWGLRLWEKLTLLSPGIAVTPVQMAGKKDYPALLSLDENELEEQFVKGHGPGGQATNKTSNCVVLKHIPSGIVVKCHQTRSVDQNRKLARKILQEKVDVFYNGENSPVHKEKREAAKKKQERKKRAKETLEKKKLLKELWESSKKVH
# UniProt Q9Y6M9, whole entry: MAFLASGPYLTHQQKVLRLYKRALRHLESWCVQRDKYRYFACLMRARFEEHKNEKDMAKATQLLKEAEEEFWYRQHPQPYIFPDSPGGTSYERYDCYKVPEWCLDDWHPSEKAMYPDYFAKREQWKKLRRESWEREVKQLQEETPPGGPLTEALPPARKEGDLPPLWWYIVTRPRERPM
# UniProt Q15436: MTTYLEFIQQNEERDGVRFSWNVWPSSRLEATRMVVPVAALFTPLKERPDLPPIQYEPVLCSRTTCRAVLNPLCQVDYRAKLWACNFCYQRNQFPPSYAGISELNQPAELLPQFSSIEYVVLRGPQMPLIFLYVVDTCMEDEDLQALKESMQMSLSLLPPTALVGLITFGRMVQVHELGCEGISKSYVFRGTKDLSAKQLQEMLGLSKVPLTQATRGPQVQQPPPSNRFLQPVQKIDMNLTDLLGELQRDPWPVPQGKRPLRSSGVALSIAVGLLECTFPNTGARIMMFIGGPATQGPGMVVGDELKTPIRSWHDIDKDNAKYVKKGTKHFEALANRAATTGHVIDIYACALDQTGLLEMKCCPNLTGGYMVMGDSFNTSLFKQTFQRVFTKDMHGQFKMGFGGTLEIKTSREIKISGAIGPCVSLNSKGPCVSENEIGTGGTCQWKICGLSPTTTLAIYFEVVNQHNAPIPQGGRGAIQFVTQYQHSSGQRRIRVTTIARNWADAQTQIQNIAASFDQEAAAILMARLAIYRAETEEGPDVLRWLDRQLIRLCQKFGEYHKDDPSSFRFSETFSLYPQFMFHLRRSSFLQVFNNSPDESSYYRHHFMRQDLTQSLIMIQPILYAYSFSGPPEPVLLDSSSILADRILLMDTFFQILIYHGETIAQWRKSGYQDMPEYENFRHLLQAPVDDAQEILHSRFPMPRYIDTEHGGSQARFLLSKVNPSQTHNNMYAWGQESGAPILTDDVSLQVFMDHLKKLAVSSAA
# UniProt O00214: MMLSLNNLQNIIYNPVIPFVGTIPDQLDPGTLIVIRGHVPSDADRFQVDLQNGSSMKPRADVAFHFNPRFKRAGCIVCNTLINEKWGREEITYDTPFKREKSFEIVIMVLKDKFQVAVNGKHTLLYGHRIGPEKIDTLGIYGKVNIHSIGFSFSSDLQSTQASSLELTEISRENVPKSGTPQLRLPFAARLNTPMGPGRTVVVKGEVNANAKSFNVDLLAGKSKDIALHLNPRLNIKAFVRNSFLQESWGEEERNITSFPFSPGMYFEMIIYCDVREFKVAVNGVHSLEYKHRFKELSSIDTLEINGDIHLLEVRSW
# UniProt Q8IZ69: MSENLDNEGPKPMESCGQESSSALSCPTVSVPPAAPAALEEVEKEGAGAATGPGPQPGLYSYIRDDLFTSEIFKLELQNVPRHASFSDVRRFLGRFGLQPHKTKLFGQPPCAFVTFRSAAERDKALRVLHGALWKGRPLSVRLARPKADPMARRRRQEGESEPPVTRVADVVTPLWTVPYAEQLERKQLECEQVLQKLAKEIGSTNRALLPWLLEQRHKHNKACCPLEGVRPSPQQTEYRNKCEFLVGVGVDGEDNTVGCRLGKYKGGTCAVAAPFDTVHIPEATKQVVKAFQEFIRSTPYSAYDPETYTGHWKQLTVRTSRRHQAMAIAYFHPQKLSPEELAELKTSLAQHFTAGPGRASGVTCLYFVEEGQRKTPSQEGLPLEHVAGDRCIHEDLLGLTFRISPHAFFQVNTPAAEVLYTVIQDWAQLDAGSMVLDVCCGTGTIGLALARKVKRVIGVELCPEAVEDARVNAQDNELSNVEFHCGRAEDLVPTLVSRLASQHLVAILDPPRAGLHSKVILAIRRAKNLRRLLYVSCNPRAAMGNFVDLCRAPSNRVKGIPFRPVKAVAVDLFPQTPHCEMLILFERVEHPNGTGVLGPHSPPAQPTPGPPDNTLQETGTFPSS
# UniProt Q9Y5J7: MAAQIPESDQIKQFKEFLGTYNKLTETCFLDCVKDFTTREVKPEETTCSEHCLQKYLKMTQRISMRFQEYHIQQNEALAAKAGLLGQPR
# UniProt Q5BKY9: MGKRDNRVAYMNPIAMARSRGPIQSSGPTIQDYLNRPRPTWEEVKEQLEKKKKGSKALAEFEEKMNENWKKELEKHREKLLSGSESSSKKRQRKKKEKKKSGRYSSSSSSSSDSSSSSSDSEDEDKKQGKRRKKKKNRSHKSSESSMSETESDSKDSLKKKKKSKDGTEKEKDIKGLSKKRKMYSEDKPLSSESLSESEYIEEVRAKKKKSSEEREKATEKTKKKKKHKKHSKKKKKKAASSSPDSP
# UniProt Q9H0K6: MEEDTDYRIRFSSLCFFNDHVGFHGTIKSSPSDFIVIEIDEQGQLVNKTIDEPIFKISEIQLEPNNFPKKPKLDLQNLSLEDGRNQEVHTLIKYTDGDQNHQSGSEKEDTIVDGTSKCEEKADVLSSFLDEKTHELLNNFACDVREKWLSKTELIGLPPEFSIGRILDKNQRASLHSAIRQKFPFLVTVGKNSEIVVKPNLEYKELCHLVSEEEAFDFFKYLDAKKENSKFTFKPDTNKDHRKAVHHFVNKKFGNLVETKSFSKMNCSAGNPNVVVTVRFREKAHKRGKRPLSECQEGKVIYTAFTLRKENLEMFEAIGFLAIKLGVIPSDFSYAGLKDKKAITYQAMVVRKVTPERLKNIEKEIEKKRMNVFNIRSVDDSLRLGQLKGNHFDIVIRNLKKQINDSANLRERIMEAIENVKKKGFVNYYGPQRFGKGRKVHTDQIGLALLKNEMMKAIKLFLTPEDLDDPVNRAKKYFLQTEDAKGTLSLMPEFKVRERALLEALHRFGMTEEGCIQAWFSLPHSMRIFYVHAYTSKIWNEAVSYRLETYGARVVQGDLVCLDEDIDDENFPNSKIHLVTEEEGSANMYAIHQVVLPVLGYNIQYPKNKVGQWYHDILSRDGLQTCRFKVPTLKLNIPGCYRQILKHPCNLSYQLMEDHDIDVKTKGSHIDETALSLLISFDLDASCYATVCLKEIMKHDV
# ± gives the standard deviation of the averaged measurements. The list shows a part of the results.
# Compound: Nc1nc2c(ncn2[C@@H]2O[C@H](COP(=O)(O)OP(=O)(O)OP(=O)(O)O)[C@@H](O)[C@H]2O)c(=O)[nH]1 [guanosine triphosphate]
# Assay: NP40-soluble protein abundance relative to vehicle (solubility fold change) (ratio); higher = more soluble protein in presence of GTP
# Conditions: concentration: 4mM
# Outline: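 In three independent experiments, Jurkat crude lysate made by Dounce homogenisation was treated for 10 min at room temperature and then 3 min at 37 °C with eight concentrations ranging from 0.1 to 10 mM. It was then solubilised with 0.8% NP40 plus benzonase for 60 min at 4 °C and ultracentrifuged. The supernatant was TMT-labelled for LC-MS/MS, and each value is the fold change against the detergent-processed vehicle for the same replicate, using vsn-normalised intensities.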
row,Target,NP40-soluble protein abundance
1,E9PCW1 and related entries (UniProt O95249),0.924 ± 0.028
2,E7EPT4 and related entries (UniProt P19404),1.2 ± 0.17
3,F5GZZ0 and related entries (UniProt Q6NS38),1.03 ± 0.033
4,E7ESS2 and related entries (UniProt O95819),0.968 ± 0.064
5,F5H2R5 and related entries (UniProt P52566),0.864 ± 0.088
6,E9PMI6 and related entries (UniProt P54105),1.03 ± 0.021
7,F5H1M8 and related entries (UniProt Q96MG8),0.844 ± 0.01
8,E7ESG2 and related entries (UniProt Q9HAW4),1.02 ± 0.067
9,E7ETP9 and related entries (UniProt Q9UQV4),0.831 ± 0.13
10,E9PCG9 and related entries (UniProt Q02338),0.978 ± 0.11
11,F8VV56 and related entries (UniProt P08962),0.929 ± 0.071
12,E9PGC0 and related entries (UniProt P20936),0.909 ± 0.027
13,F5H269 and related entries (UniProt Q9Y485),1.04 ± 0.09
14,F5GZG1 and related entries (UniProt P61224),0.88 ± 0.14
15,F5GWJ6 and related entries (UniProt Q9H3J6),1.21 ± 0.12
16,E9PH64 and related entries (UniProt Q9Y6M9),1.1 ± 0.086
17,F8W8C2 and related entries (UniProt Q9HBM0),0.975 ± 0.082
18,E9PKV2 and related entries (UniProt Q9NRX2),1.25 ± 0.29
19,F5H365 and related entries (UniProt Q15436),0.996 ± 0.033

# Rewritten with bars between the fields: part of the list above.
row | Target | NP40-soluble protein abundance
7 | F5H1M8 and related entries (UniProt Q96MG8) | 0.844 ± 0.01
8 | E7ESG2 and related entries (UniProt Q9HAW4) | 1.02 ± 0.067
9 | E7ETP9 and related entries (UniProt Q9UQV4) | 0.831 ± 0.13
10 | E9PCG9 and related entries (UniProt Q02338) | 0.978 ± 0.11
11 | F8VV56 and related entries (UniProt P08962) | 0.929 ± 0.071
12 | E9PGC0 and related entries (UniProt P20936) | 0.909 ± 0.027
13 | F5H269 and related entries (UniProt Q9Y485) | 1.04 ± 0.09
14 | F5GZG1 and related entries (UniProt P61224) | 0.88 ± 0.14
15 | F5GWJ6 and related entries (UniProt Q9H3J6) | 1.21 ± 0.12
16 | E9PH64 and related entries (UniProt Q9Y6M9) | 1.1 ± 0.086

# Next part:

row,Target,NP40-soluble protein abundance
1,F6V2D4 and related entries (UniProt O00214),0.96 ± 0.03
2,F2Z2W7 and related entries (UniProt Q8IZ69),1.14 ± 0.067
3,E7ERS3 and related entries (UniProt Q86VM9),1.25 ± 0.066
4,G3V502 and related entries (UniProt Q9Y5J7),1.05 ± 0.12
5,F8WDV0 and related entries (UniProt Q9UI26),1.01 ± 0.15
6,G3XAI9 and related entries (UniProt Q5BKY9),0.835 ± 0.14
7,UniProt E9PSI1,0.948 ± 0.047
8,F8WCU9 and related entries (UniProt Q68CP9),1.34 ± 0.15
9,F8VZA0 and related entries (UniProt Q9H0K6),0.944 ± 0.074
10,E9PK57 and related entries (UniProt O94830),1 ± 0.055
11,E9PHH9 and related entries (UniProt Q9BUI4),1.12 ± 0.041
12,F8VQE1 and related entries (UniProt Q9UHB6),1.35 ± 0.12
13,E9PI30 and related entries (UniProt P56202),0.973 ± 0.082
14,F5GZ90 and related entries (UniProt Q9NZJ0),1.01 ± 0.081
15,F8W8G5 and related entries (UniProt P10242),1.12 ± 0.037
16,E7EWW0 and related entries (UniProt Q7Z3J2),1.04 ± 0.077
17,E7EPD8 and related entries (UniProt Q9NUW8),0.99 ± 0.025
18,E9PEL3 and related entries (UniProt P61513),0.889 ± 0.19
